PubChem BioAssay AID504786 – Drosophila RNAi Screening Center | 2011

Test: 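Knock-downs reducing HIF reporter induction by the iron chelator DFO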 (primary screen)
System: Drosophila S2 cells with a stable HIF luciferase reporter
Reagents: long dsRNA against Drosophila genes, about 0.2 µg dsRNA per well of a 384-well plate
Time to read-out: three days of knock-down, then 20 h of DFO before reading
Challenge: desferrioxamine (DFO) at 100 µM, an iron chelator that mimics hypoxia, for 20 h
Measurement: 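HIF reporter luminescence in cells given 100 µM DFO for 20 h, using the mouse ldh-a hypoxia-response element, scored as per-plate z-scores; higher means greater loss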
Scale: z-score: higher = stronger loss of HIF reporter signal
The screen tested about 21,000 reagents; below is an unselected part of those that have a named target and a result. 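Primary screen; positive scores mean lost reporter signal, so the sign may be inverted from the usual convention.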 Names joined by + are all predicted targets of the reagent. Reagent sequences are not shown.

gene knocked down	amplicon	z-score, replicate 1	z-score, replicate 2	z-score, replicate 3	z-score, replicate 4
Snmp1	DRSC16168	0.9	1		
CG43902	DRSC17999	0.2	-0.7		
CG4716	DRSC06884	-0.3	-0.3		
cwo	DRSC17072	-0.6	-1.3		
Fer1HCH	DRSC16671	0.4	2.3		
elgi	DRSC10242	-0.3	-0.3		
GstT4	DRSC19757	-0.4	-0.4		
CG18171	DRSC08524	-0.2	-0.3		
rho-7	DRSC07304	-0.5	-0.5		
Cyt-c1	DRSC10447	0.5	1.6		
Got2	DRSC00643	-0.3	-0.2		
CG12911	DRSC06226	-0.3	-0.1		
SMC1	DRSC16846	0.1	0		
ouib	DRSC14376	-0.3	-0.3		
GluProRS	DRSC14095	0	0.9		
CG13050	DRSC09931	-0.1	-0.2		
cort	DRSC02148	0.5	0		
cysu	DRSC15902	-0.2	0.1		
CG14854	DRSC14978	-0.4	-0.1		
Cyp318a1	DRSC19784	-0.3	0.1		
Ubc84D	DRSC12610	-0.4	-0.8		
CG3156	DRSC18503	-0.3	-0.4		
CG8520	DRSC07206	-0.4	-0.6		
yki	DRSC04437	2.1	1.9		
Loxl2	DRSC04469	-0.2	0.4		
CG8343	DRSC04905	-0.2	-0.3		
CG32354	DRSC10763	-0.4	-0.4		
CG32354	DRSC10775	-0.3	-0.3	0.2	-0.3
CG6813	DRSC16122	-0.3	-0.2		
Acsx3	DRSC14309	-0.3	-0.3		
ICA69	DRSC11621	-0.4	-0.5		
Cth	DRSC07422	0.3	-0.3		
Inx2	DRSC18783	-0.3	-0.5		
PCNA	DRSC07653	-0.1	-0.2		
ss	DRSC17069	-0.2	-0.1		
Tbh	DRSC18723	-0.3	-0.1		
CG4362	DRSC15567	-0.2	0.2		
RhoGAP93B	DRSC15488	-0.4	0		
Set8	DRSC15473	-0.4	-0.6		
kek1	DRSC03551	-0.3	-0.7		
Amy-d	DRSC05919	-0.4	-0.9		
Osi4	DRSC12134	-0.3	-0.3		
Hexim	DRSC15490	-0.2	-0.4		
aust	DRSC02558	-0.3	-0.5		
CG12691	DRSC17880	-0.2	-0.3		
mRpS29	DRSC04398	2	1		
Ugt302E1	DRSC15635	-0.2	-0.3		
CG42615	DRSC05121	-0.3	0.1		
ENGase	DRSC19952	-1.2	-0.6		
ENGase	DRSC19953	-0.4	-0.3		
ttk	DRSC14078	-0.3	0.1		
ttk	DRSC17091	2.1	0.8		
sna	DRSC03613	-0.4	-0.2		
18w	DRSC05029	-0.2	-0.4		

Continued; the last 15 above are carried over.
gene knocked down	amplicon	z-score, replicate 1	z-score, replicate 2	z-score, replicate 3	z-score, replicate 4
kek1	DRSC03551	-0.3	-0.7		
Amy-d	DRSC05919	-0.4	-0.9		
Osi4	DRSC12134	-0.3	-0.3		
Hexim	DRSC15490	-0.2	-0.4		
aust	DRSC02558	-0.3	-0.5		
CG12691	DRSC17880	-0.2	-0.3		
mRpS29	DRSC04398	2	1		
Ugt302E1	DRSC15635	-0.2	-0.3		
CG42615	DRSC05121	-0.3	0.1		
ENGase	DRSC19952	-1.2	-0.6		
ENGase	DRSC19953	-0.4	-0.3		
ttk	DRSC14078	-0.3	0.1		
ttk	DRSC17091	2.1	0.8		
sna	DRSC03613	-0.4	-0.2		
18w	DRSC05029	-0.2	-0.4		
ome	DRSC09322	-0.5	-0.3		
ome	DRSC10282	0	0.1		
ome	DRSC11380	-0.2	-0.5		
Pabp2	DRSC07501	4.4	2.5		
CG9920	DRSC16578	0.2	0.1		
CG13998	DRSC02330	-0.3	-0.3		
CG11436	DRSC17783	-0.1	0.5		
Taf12	DRSC16879	0.5	0.9		
bard	DRSC14796	-0.7	-0.1		
Ude	DRSC15324	-0.3	-0.4		
WASp	DRSC15032	0	0		
CG2336	DRSC12581	-0.3	-0.3		
CG31224	DRSC15272	-1	-0.3		
CG31224	DRSC16290	-0.1	-0.5		
wls	DRSC10605	-0.3	-0.2		
Or82a	DRSC11996	0.3	0		
Alp11	DRSC20080	-0.3	-0.2		
CG10164	DRSC14197	-0.5	-0.1		
dind	DRSC16294	-0.2	-0.4		
LRP1	DRSC07238	-0.3	-0.4		
Tsp86D	DRSC15607	-0.3	-0.2		
Ankrd49	DRSC01894	-0.3	-0.3		
CG15439	DRSC00453	-0.1	-0.2		
Cyp4p1	DRSC07372	-0.4	-0.2		
CG10561	DRSC02068	-0.2	-0.3		
CR11700 (retired record)	DRSC17794	3.7	3.9		
CG15256	DRSC01940	-0.2	-0.1		
CR31958	DRSC00282	-0.4	-0.2		
CG34450	DRSC17822	-0.3	-0.5		
CG5096	DRSC02813	-0.4	0.1		
Shmt	DRSC18264	-0.2	-0.2		
CG14856	DRSC14980	-0.2	-0.3		
PolQ	DRSC17006	-0.3	0.2		
CG10417	DRSC04846	-0.2	0.1		
CG7920	DRSC16346	-0.4	-0.4		
CG32281	DRSC08236	-0.1	-0.3		
kairos	DRSC19972	-0.4	-0.2		
Mi-2 + Su(Tpl)	DRSC09640	-0.2	0.4		
Spag1	DRSC15331	-0.2	-0.5		
IFT57	DRSC00720	-0.3	-0.2		
CG12679	DRSC20493	-0.2	-0.1		
CG34309	DRSC14838	-0.4	-0.5		
Shark	DRSC07680	-0.2	-0.2		
CG15471	DRSC18054	-0.3	-0.3		
CG7231	DRSC03034	-0.2	-0.7		
CG13102	DRSC02202	-0.4	-0.6		
CG7509	DRSC08596	-0.4	-0.3		
Slmap	DRSC03799	2	1.6		
sloth2 + sloth1	DRSC17922	-0.2	-0.4		
sloth2 + sloth1	DRSC17923	-0.3	-0.1		
TwdlV	DRSC12226	-0.3	-0.5		
Rubicon	DRSC17889	-0.4	-0.6		
